Our source for the glucoside product formed values is patent US20200270588A1, “GLUCOSYL TRANSFERASE POLYPEPTIDES AND METHODS OF USE” (Syngenta Participations AG, priority 2017, published 2020).

Each structure is given as a SMILES string.

The series has as its system bx glucosyl transferases. Put plainly: LC/MS characterisation of enzyme product glucosides against synthetic standards. Type of series: biochemical.

As for `CON1C(=O)N(c2cc(C(F)(F)F)ccn2)C(O)[C@@H]1C` (stereo partly drawn) [Compound VI], the glucoside product formed entry (all bx enzymes tested) was “only the S-beta stereoisomer O-glucoside product”.
With `CN1CC(O)N(c2cc(C(F)(F)F)ccn2)C1=O` (stereo not drawn) [Compound V], the glucoside product formed entry runs as follows: (C-terminally His tagged SEQ ID NO1 and its A334R mutant) “predominantly the conjugate product matching the 22902-13 isomer standard”; (C-terminally His-tagged Zea mays BX8 derivatives SEQ ID's 38 and 51) “matched the minor component of the 22902-11 isomer standard”.
